These are yes or no findings as the source states them, for the method shown. Binding seen in cells or lysates may run through a third protein. Binding calls can cover weak binding; strength is not graded here.

The values that follow come from publication PMC10298753.

In assay [1] the target is purified bovine tubulin (microtubules) (bovine). Description: co-sedimentation; in vitro translated IFT74 constructs incubated with or without microtubules and spun through a sucrose gradient at lower g forces; pellet and supernatant probed by western blot; only the target purified. For orientation: A western blot detects proteins with antibodies after separation by electrophoresis.

Assay [2] shares this target. Description: co-sedimentation; in vitro translated IFT74 constructs incubated with purified bovine tubulin (microtubules), without IFT81; centrifuged at 100,000 g; pellet and supernatant probed for tubulin and IFT74; only the target purified.

B1: in vitro translated IFT74Δexon2 (domain or fragment, UniProt Q96LB3-1 41-600)
chain: MPPGTARPGSRGCPIGTGGVLSSQIKVAHRPVTQQGLTGMKTGTKGPQRQILDKSYYLGLLRSKISELTTEVNKLQKGIEMYNQENSVYLSYEKRAETLAVEIKELQGQLADYNMLVDKLNTNTEMEEVMNDYNMLKAQNDRETQSLDVIFTERQAKEKQIRSVEEEIEQEKQATDDIIKNMSFENQVKYLEMKTTNEKLLQELDTLQQQLDSQNMKKESLEAEIAHSQVKQEAVLLHEKLYELESHRDQMIAEDKSIGSPMEEREKLLKQIKDDNQEIASMERQLTDTKEKINQFIEEIRQLDMDLEEHQGEMNQKYKELKKREEHMDTFIETFEETKNQELKRKAQIEANIVALLEHCSRNINRIEQISSITNQELKMMQDDLNFKSTEVQKSQSTAQNLTSDIQRLQLDLQKMELLESKMTEEQHSLKSKIKQMTTDLEIYNDLPALKSSGEEKIKKLHQERMILSTHRNAFKKIMEKQNIEYEALKTQLQENETHSQLTNLERKWQHLEQNNFAMKEFIATKSQESDYQPIKKNVTKQIAEYNKTIVDALHSTSGN
With B1, the binding result in assay [1] is on record as “binds”.

B2: in vitro translated full length IFT74 (protein, UniProt Q96LB3-1 1-600)
chain: MASNHKSSAARPVSRGGVGLTGRPPSGIRPLSGNIRVATAMPPGTARPGSRGCPIGTGGVLSSQIKVAHRPVTQQGLTGMKTGTKGPQRQILDKSYYLGLLRSKISELTTEVNKLQKGIEMYNQENSVYLSYEKRAETLAVEIKELQGQLADYNMLVDKLNTNTEMEEVMNDYNMLKAQNDRETQSLDVIFTERQAKEKQIRSVEEEIEQEKQATDDIIKNMSFENQVKYLEMKTTNEKLLQELDTLQQQLDSQNMKKESLEAEIAHSQVKQEAVLLHEKLYELESHRDQMIAEDKSIGSPMEEREKLLKQIKDDNQEIASMERQLTDTKEKINQFIEEIRQLDMDLEEHQGEMNQKYKELKKREEHMDTFIETFEETKNQELKRKAQIEANIVALLEHCSRNINRIEQISSITNQELKMMQDDLNFKSTEVQKSQSTAQNLTSDIQRLQLDLQKMELLESKMTEEQHSLKSKIKQMTTDLEIYNDLPALKSSGEEKIKKLHQERMILSTHRNAFKKIMEKQNIEYEALKTQLQENETHSQLTNLERKWQHLEQNNFAMKEFIATKSQESDYQPIKKNVTKQIAEYNKTIVDALHSTSGN
For B2, the binding result in assay [1] and in assay [2] was “binds” in each case.
